At least one structure is not confirmed: it was looked up by name or label, or the drawing left a doubt. Some results were stated once for a whole list of compounds, not compound by compound.
How the values were obtained:
[1] = test system: intra-ocular pressure (IOP) of rabbits; test: 4-aminopyridine (4AP)-induced ocular hypertension in rabbits; format: in vivo, New Zealand white rabbits; conditions: for Time normalized IOP was maintained / Time to reverse the initial (pre-established) rise in IOP: 0.1 or 1 mM applied one hour after first 4AP; for Concentrations effective against the 4AP-induced rise in IOP: 1 drop topically 30 minutes prior to 4AP
Procedure: Intra-ocular pressure in rabbits was measured using of a “Reichert Model 30™ Pneumatonometer” after anesthetizing the cornea with local anesthetic.
Since the IOP reflects a balance of the inflow and outflow of aqueous humour, reduction of the increased 4AP-induced inflow of aqueous humour by cardiac glycosides should prevent the increase in IOP. Thus, the standard experimental design to test effects of cardiac glycosides involved topical application of the compounds (1 drop in each eye) 30 minutes prior to application of 4AP and measurement of IOP every 30 minutes over five hours. […] Each experiment was done three times, but the figures depict a representative experiment using a different rabbit for each concentration of the cardiac glycoside.
DGlyN or DMe (0.1 or 1 mM) were applied one hour after the first application of 4AP, which was added every two hours.
New Zealand white rabbits (3-3.5 kg) about 1 year old, of either sex, were housed individually in separate cages in animal room conditions on a reversed, 12-hour dark/light cycle. For the experiments the animals were transferred to rabbit restrainers in a quiet and calm atmosphere (FIG. 1). […] Animal care and treatment were subject to the approval of the institutional committee for animal experiments, Weizmann Institute IACUC permission (no 04270911-2).
IOP (mm Hg) of rabbits was measured using a calibrated Pneumatonometer (Model 30, Reichert technologies, FIG. 1). A local anesthetic Oxybuprocaine HCl (0.4%, 25 μl) was applied to each cornea about a minute before IOP measurements. Two baseline IOP readings were taken before topical administration of the CG (or PBS as control) and after half an hour (Zero time). […] At zero time one drop of 4AP (40 mg/ml, 30 μl) or IB-MECA (1 μM, 30 μl) was administered to both eyes of each rabbit IOP measurements were made at different times as indicated in each experiment. In the experiments for which the IOP was elevated for several hours, 4AP was added every […] or IB-MECA every 2 hours. […] In all cases the figures depict the average effect on IOP (i.e for four or six eyes) compared to control ±SEM. […] Significance of differences from the control was calculated by the unpaired Students t-test (p values), p values <0.05 were considered significant. Corneal thickness (μm) was measured using an ultrasonic pachymeter (Sonogage pachometer, Cleveland, USA), before and during the experiment with CG and 4AP treatments. The values represent averages of three independent measurements for each eye.

[2] = test system: intra-ocular pressure (IOP) of rabbits; test: IB-MECA-induced ocular hypertension in rabbits; format: in vivo, New Zealand white rabbits; conditions: 1 mM applied after IB-MECA
Procedure: IB-MECA induces acute ocular hypertension by a different and well-defined mechanism. Namely, IB-MECA is a selective agonist of the A3-adenosine receptor, and rises aqueous humour inflow and IOP by activating Cl channels of the NPE cells (18, 19). […] FIG. 8A depicts the effects of DMe (0.1-1 mM) applied prior to the IB-MECA, and a similar result was obtained for DGlyN (not shown). FIG. 8B depicts effects of digoxigenin, DGlyN and DMe (1 mM) applied after the IB-MECA.
New Zealand white rabbits (3-3.5 kg) about 1 year old, of either sex, were housed individually in separate cages in animal room conditions on a reversed, 12-hour dark/light cycle. For the experiments the animals were transferred to rabbit restrainers in a quiet and calm atmosphere (FIG. 1). […]
IOP (mm Hg) of rabbits was measured using a calibrated Pneumatonometer (Model 30, Reichert technologies, FIG. 1). […] Two baseline IOP readings were taken before topical administration of the CG (or PBS as control) and after half an hour (Zero time). […] Significance of differences from the control was calculated by the unpaired Students t-test (p values), p values <0.05 were considered significant. Corneal thickness (μm) was measured using an ultrasonic pachymeter (Sonogage pachometer, Cleveland, USA), before and during the experiment with CG and 4AP treatments. […]

Row | Compound | Time normalized IOP was maintained [1] | Time to reverse the initial (pre-established) rise in IOP [1] | Concentrations effective against the 4AP-induced rise in IOP [1] | Effect on IB-MECA-induced ocular hypertension [2] | Order of relative effects on IOP ([1]; all at 0.1 mM, 1.5 hours after 4AP, average of three experiments) | Effect on 4AP-induced rise in IOP compared with digoxin ([1]; topically 30 minutes prior to 4AP)
1 | CC1CN(CC(N)=O)CCC(OC2C(O)CC(OC3C(O)CC(OC4CCC5(C)C(CCC6C5CC(O)C5(C)C(C7=CC(=O)OC7)CCC65O)C4)OC3C)OC2C)O1 (stereo not drawn) [DGlyN] | at least 4 hours | ≤ 30 min | 0.05 to 0.1 mM |  |  | 
2 | C[C@]12CC[C@H](O)C[C@H]1CC[C@@H]1[C@@H]2C[C@@H](O)[C@]2(C)[C@@H](C3=CC(=O)OC3)CC[C@]12O [Digoxigenin, digoxigenin, reference compound] |  |  |  | almost the same as seen with 4AP | DGlyN≈DMe≈digoxigenin>digoxin>ouabain | effectively reduced IOP at lower concentrations than digoxin
3 | CC1CN(C)CCC(OC2C(O)CC(OC3C(O)CC(OC4CCC5(C)C(CCC6C5CC(O)C5(C)C(C7=CC(=O)OC7)CCC65O)C4)OC3C)OC2C)O1 (stereo not drawn) [DMe] | at least 4 hours | ≤ 30 min | 0.05 to 0.1 mM |  |  | 
